Laboratory results: PubChem BioAssay AID1794845 (National Center for Advancing Translational Sciences (NCATS), 2023)
The whole screen tested about 6,900 compounds, of which fewer than 10 were called active. The call rests on the fitted dose curve; in most records, active means well fitted curve in the direction sought with a large enough effect; inconclusive means small, poorly fitted or top-dose-only effect, or another doubt; inactive means no such curve, though single readings can be large or run the other way. This is one part of the list.

Chains of the proteins cited; added tags and fusions are not shown. Lines headed by an entry give the natural chain unless they say otherwise; changes in a name come on top.
UniProt C7C422: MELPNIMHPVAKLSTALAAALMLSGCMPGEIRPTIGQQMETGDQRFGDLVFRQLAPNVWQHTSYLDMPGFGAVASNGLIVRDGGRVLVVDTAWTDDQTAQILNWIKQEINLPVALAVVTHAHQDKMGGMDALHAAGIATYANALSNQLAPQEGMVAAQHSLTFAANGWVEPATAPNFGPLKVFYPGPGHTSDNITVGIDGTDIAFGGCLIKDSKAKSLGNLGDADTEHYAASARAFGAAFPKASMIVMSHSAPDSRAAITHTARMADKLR

biological target: Metallo-beta-lactamase type 2 (Klebsiella pneumoniae) (UniProt C7C422); test: qHTS to identify inhibitors of the New Delhi Metallo-beta-lactamase (NDM): primary screen against the NCATS Gemini Collection; conditions: NDM-1 enzyme, meropenem hydrolysis, absorbance 300 nm; at 38.4 µM (top of the series) unless noted; further: % of control where 0% means no effect
From the text: Assay Submitter (PI): James Inglese Ph.D., Patricia Dranchak Ph.D., Mahesh Aitha Ph.D. Assay Development and Screening Technology Laboratory (ADST) National Center for Advancing Translational Sciences (NCATS), Rockville, MD National Institute of Health (NIH), Bethesda, Maryland The metallo-beta-lactamases (MBL) are a main antibiotic resistance mechanism evolved by bacteria. There is an urgent clinical need for MBL inhibitors to mitigate this growing threat. To support a machine-based learning study, qHTS has been used to experimentally test inhibitors identified by prediction tools.
PROTOCOL TABLE (as described by Inglese et al., 2007) SEQUENCE No. (e.g., 1, 2, 3, etc.); […] (e.g., enzyme, Incubation, Reagent, etc.); VALUE; DESCRIPTION 1; NDM-1; 4 uL of 3 nM enzyme [2 nM final] in 50 mM HEPES (pH 7.0), 1 uM […], 0.01% Tween20; Use BioRaptr to dispense into Aurora black, clear bottom low base 1536-well plates 2; Compounds; 23 nL; Use Pin Tool (Wako) to transfer DMSO control and library compounds in DMSO 3; Incubate; >30 min 4; Reagent; 2 uL of 150 uM meropenem [50 uM final] 5; Incubate; 30 min. 6; Detector; Absorbance at 300 nm (bandwidth = 5 nm, 25 flashes/well) on Tecan Infinity NOTES (numbers refer to sequence above) 1; Column 1 of each plate received assay buffer without enzyme and columns 2-48 received enzyme for a final assay concentration of 2 nM. 2; Control plate contained DMSO in columns 1, 2, 3, and 4. 3; Compound interaction with enzyme. 4; Meropenem substrate was prepared in the same assay buffer as step 1 for a final assay concentration of 50 uM and added to all wells across the assay plates. 5; Substrate interaction with enzyme, plateau phase of kinetics. 6; Default reader settings were applied for absorbance read at 300 nm, bandwidth = 5 nm, 25 flashes/well. References: Inglese J, Shamu CE, Guy RK. 2007. Reporting data from high-throughput screening of small-molecule libraries. Nat Chem Biol. doi:10.1038/nchembio0807-438 Yasgar A, Shinn P, Jadhav A, Auld D, Michael S, Zheng W, Austin CP, Inglese J, Simeonov A. 2008. Compound Management for Quantitative High-Throughput Screening. J Lab Autom 13:79 - 89. doi:10.1016/j.jala.2007.12.004

Row | SMILES | activity % (negative = inhibition)
1 | COc1ccc(CCNC(=O)c2ccc3nnc(C4CC4)n3c2)cc1 | inactive: 2.78% [at 57.5 µM]
2 | CC(C)(C)C(=O)N[C@H]1C[C@@H](Cc2cc(CN3CCN(c4ccccc4)CC3)on2)C1(C)C | inactive: 2.29%
3 | COc1ccc(-c2ccccc2NC(=O)C2CCCN2C(=O)c2cccnc2)cc1 (stereo not given) | inactive: 1.57%
4 | COc1ccc(C(=O)N2CCC3(CC2)CC(N(Cc2ccccc2)C2CC2)CCO3)cn1 (stereo not given) | inactive: 1.49%
5 | Cc1cc2nc3n(c(=O)c2n1CC(=O)NCCc1ccc(Cl)cc1)CCCC3 | inactive: 10.3%
6 | C=CCNC(=O)N[C@H]1CO[C@H]2[C@@H]1OC[C@@H]2Nc1nccc(C(C)(C)C)n1 | inactive: 8.34% [at 57.5 µM]
7 | CN(c1ccccc1)c1cc(=O)c2ccnc(NCC3CCOCC3)c2o1 | inactive: 15.4% [at 57.5 µM]
8 | O=C(CCc1cc2n(n1)CCNC2)NCc1nc2ccc(Cl)cc2[nH]1 | inactive: -5.97%
9 | O=C(CC1CCCC1)N1CC(c2nc(CCOCc3ccccc3)no2)C1 | inactive: 16.8%
10 | C[C@H](C(=O)N1CCSCC1)C1CC[C@@]2(C)Cc3sc(Nc4c(Cl)cccc4Cl)nc3[C@@H](C)[C@@H]2[C@H]1O (stereo not given in full) | inactive: 1.59%
11 | O=C(N[C@@H]1C[C@H](Cn2cc(CN3CCS(=O)(=O)CC3)nn2)[C@@H](O)[C@H]1O)C1CCCC1 | inactive: 18.6%
12 | Cc1ccccc1COC1CN(C(=O)C2CCN(C(=O)C3CC3)CC2)C1 | inactive: -4.72%
13 | CCOc1ccc(-c2cc3c(=O)n(CCNC(=O)c4ccoc4)ccn3n2)cc1 | inactive: 2.68%
14 | CN1CCN(C)c2cnc(-c3cnn(Cc4ccccc4)c3)cc2C1 | inactive: 2.76% [at 57.5 µM]
15 | COc1c(F)cccc1CN1CCOc2cc([S+](N)(=O)[O-])ccc2C1 | inactive: 1.62% [at 57.5 µM]
16 | O=C(Cc1ccccc1F)Nc1cnc(-c2cccnc2)nc1 | inactive: 7.78%
17 | c1cc2c(cc1N1CCC(N3CCC4(CCNCC4)C3)CC1)OCO2 | inactive: 10.7%
18 | CCCCS(=O)(=O)N1CCCC2(C1)Nc1cccnc1NC2=NCc1ccccc1 (stereo not given) | inactive: -0.477%
19 | O=C(NC1CCCCC1)[C@@H]1Cc2nc[nH]c2CN1Cc1ccc(Cl)cc1 | inactive: 10.4% [at 57.5 µM]
20 | COc1ccc(C(C(=O)O)N2CCN(Cc3csc(C)n3)CC2)cc1C (stereo not given) | inactive: -1.02%

Filtered by structure, the compounds so far containing an NH in an aromatic ring
Row | SMILES | activity % (negative = inhibition)
8 | O=C(CCc1cc2n(n1)CCNC2)NCc1nc2ccc(Cl)cc2[nH]1 | inactive: -5.97%
19 | O=C(NC1CCCCC1)[C@@H]1Cc2nc[nH]c2CN1Cc1ccc(Cl)cc1 | inactive: 10.4% [at 57.5 µM]

Next part.

Row | SMILES | activity % (negative = inhibition)
21 | CCN1c2cc(C(=O)Nc3cccc(C(F)(F)F)c3)ccc2C(=O)N2CCCCC21 (stereo not given) | inactive: 11%
22 | CC(=O)N1CCC(N2C[C@H](O)C[C@H]2c2nc(CS(=O)(=O)c3ccc(C)cc3)no2)CC1 | inactive: -0.0052%
23 | Cc1ccc2c(c1)N(CCCC(=O)N1CCC(C)(c3noc(C4CC4)n3)CC1)C(=O)CO2 | inactive: 32.8%
24 | O=C(O)c1cccc(CC2CCN(C(=O)CCC(F)(F)F)C2)c1 (stereo not given) | inactive: 1.67%
25 | O=C(N[C@@H]1CN(C(=O)Nc2ccccc2)CCC[C@H]1O)c1ccc(O)cc1 | inactive: 4.87% [at 57.5 µM]
26 | COCC(=O)N1CC(C(=O)O)C2(CCOCC2)C1 (stereo not given) | inactive: 47.6%
27 | CC(C)[S+](=O)([O-])N1CCN(c2ccc(Cl)nn2)C(=O)C1 | inactive: 6.34%
28 | O=C(Cc1ccccn1)NCCNC(=O)c1ccc(-c2cccc(C(F)(F)F)c2)cc1 | inactive: 8.41%
29 | CN(Cc1ccc2nonc2c1)Cc1cn(-c2ccccc2)nn1 | inactive: 1.06%
30 | CCNC(=O)[C@@H]1C[C@H](NC(=O)c2oc(C)nc2C)CN1Cc1nc(C)no1 | inactive: -13.4%
31 | COc1cccc(CN2C[C@]34C=C[C@H](O3)C(C(=O)N3CCCCC3)C4C2=O)c1 (stereo not given in full) | inactive: 0.0273%
32 | CN(C)c1ccc(-c2noc([C@@H]3CCCN3C3CCOCC3)n2)cn1 | inactive: 16% [at 57.5 µM]
33 | CCCc1nc(C(=O)N[C@H]2COC[C@H]2Cc2cc(C)no2)cs1 | inactive: 0.368%
34 | c1ccc2[nH]c([C@H]3CCN(CC4CCCCC4)C3)nc2c1 | inactive: 1.62% [at 77.1 µM]
35 | COc1ccc(C(=O)N2CCOCCNC(=O)CC2)c(OC)c1 | inactive: 0.393%
36 | CCOCCCNC(=O)N1CC2CN(CCOC)CC(C1)O2 | inactive: -0.804%
37 | COc1ccc(C[C@H](NC(=O)C2=C[C@@H](Oc3cc(F)ccc3Br)[C@H](O)[C@H](O)C2)C(N)=O)cc1 | inactive: 1.94%
38 | CN(C)C[C@@H]1CN(c2ncccn2)C[C@H]1NC(=O)c1ccc(Cl)cc1 | inactive: 3.35%
39 | OC1(CN2CCCCC2)CCN(Cc2ccc(C(F)(F)F)cc2F)C1 (stereo not given) | inactive: -0.69%
40 | COCCn1ncc(N2CCC(C(=O)NCCCN3CCC(N4CCCCC4)CC3)C2)cc1=O (stereo not given) | inactive: 1.59%
